Test results as given in paper PMC5466977.
These are yes or no findings as the source states them, for the method shown. Some results given as binding are weak or reduced against the parent protein; the word gives no strength. Tags and fused reporters may be left off the sequences shown.

The chains behind the UniProt entries cited, without tags or fusion partners.
UniProt P22252: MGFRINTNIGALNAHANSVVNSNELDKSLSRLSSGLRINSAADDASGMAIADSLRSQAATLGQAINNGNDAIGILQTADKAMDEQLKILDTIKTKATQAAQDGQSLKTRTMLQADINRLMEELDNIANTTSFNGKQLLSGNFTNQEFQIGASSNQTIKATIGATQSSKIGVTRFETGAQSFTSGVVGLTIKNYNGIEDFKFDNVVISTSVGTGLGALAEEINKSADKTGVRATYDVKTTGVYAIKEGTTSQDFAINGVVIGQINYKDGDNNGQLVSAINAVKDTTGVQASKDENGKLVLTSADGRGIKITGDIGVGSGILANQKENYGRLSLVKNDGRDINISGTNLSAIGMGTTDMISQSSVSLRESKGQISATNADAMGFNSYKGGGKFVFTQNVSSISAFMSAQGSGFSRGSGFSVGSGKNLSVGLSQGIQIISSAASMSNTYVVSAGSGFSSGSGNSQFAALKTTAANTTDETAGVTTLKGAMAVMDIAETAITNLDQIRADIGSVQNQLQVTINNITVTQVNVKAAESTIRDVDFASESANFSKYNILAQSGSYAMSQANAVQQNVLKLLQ
UniProt P22251: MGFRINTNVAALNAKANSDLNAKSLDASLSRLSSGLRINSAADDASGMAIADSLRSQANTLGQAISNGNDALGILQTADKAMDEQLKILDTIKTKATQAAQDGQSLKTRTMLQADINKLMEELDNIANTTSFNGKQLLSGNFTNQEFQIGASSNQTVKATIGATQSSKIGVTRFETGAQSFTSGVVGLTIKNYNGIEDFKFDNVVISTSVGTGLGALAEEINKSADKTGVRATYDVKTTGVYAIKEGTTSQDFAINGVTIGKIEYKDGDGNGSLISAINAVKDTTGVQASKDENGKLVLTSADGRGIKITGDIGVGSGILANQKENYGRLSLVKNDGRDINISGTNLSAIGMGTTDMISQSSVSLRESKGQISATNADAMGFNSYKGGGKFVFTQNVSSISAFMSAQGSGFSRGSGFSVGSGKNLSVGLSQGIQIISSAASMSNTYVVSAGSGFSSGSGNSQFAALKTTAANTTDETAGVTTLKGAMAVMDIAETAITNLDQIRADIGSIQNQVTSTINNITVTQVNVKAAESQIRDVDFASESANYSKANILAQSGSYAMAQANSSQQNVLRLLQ

How the values were obtained:
Test in all cases: far-Western, overlay or dot blot; 500 ng of total cell lysates of induced E. coli BL21 Star (DE3) expressing the His-tagged proteins (5 μg, 10x concentrated, for FlaAΔND0 and FlaAΔND1) separated by SDS-PAGE, on nitrocellulose; probed with 50 μg of purified GST-FliS, GST-FliW or GST in 2% skim milk TBS-T; anti-GST detection; only the binder purified
[1] = biological target: recombinant His-tagged FlaB flagellin of C. jejuni (C. jejuni) (UniProt P22252)
[2] = biological target: recombinant His-tagged FlaA flagellin of C. jejuni (non-glycosylated, E. coli-derived) (C. jejuni) (UniProt P22251)
[3] = biological target: T1, His-tagged RacR protein of C. jejuni (C. jejuni) (UniProt O68795)
T1 sequence: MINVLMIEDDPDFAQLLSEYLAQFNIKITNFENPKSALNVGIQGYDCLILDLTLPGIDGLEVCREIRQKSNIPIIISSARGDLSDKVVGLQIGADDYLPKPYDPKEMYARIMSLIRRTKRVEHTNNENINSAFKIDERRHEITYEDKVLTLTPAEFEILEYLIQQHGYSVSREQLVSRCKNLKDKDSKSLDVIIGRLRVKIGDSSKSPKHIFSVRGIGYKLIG

B1: GST-tagged FliS of C. jejuni (protein, UniProt P0DPD3 1-128)
chain: MQNNLAYNAYSQNQAGIESPQKLIEMLYEGILRFCARAKVAIRNEDIEQRVYFVKRTTAIFIELINTLDYEKGGEVAHYLSGLYTREIQLLSLANLENNEDRINEVINVTKGLLEAWREVHNNETVAQ
binding [1]: binds | binding [2]: binds | binding [3]: no binding (tested: 50 μg of probe)
